Measurements published in paper PMC10433927.
These are yes or no findings as the source states them, for the method shown. A result given as binding can be weak or reduced; the word gives no strength. For some of these results: Where a sequence is shown, tags or fusion partners need not be part of it. For some of these results: In cells and extracts the contact can be indirect.

T1: BD-ZmSGT1 (Zea mays)
T1 sequence: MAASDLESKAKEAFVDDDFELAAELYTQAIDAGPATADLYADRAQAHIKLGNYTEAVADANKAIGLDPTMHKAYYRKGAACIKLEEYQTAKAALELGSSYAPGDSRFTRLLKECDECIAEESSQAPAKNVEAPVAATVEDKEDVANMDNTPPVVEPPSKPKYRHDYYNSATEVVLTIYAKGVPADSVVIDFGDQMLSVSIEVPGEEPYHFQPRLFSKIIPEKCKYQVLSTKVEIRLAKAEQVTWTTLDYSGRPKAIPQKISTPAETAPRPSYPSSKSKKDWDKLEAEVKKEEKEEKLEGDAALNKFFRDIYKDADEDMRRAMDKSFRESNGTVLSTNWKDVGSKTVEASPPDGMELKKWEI

B1: ZmSGT1-6HA (protein, UniProt A0A3L6DPG1 1-361)
chain: T1 sequence

Legend:
BD-ZmSGT1 (Zea mays) = biological target: T1, BD-ZmSGT1 (Zea mays); experiment: two-hybrid; yeast AH109, pGBKT7 (BD) and pGADT7 (AD); dilution series on SD-Leu-Trp and SD-Leu-Trp-His, 5 d at 28 °C
[1] = biological target: BD-UmSee1∆SP (Ustilago maydis); experiment: as above
ZmSIP3-4myc (Zea mays) = experiment: co-IP; co-expression in N. benthamiana leaves, harvest 3 dpi; Myc magnetic beads at 4 °C; blots with anti-HA and anti-myc
ZmSIP2-4myc (Zea mays) = experiment: as above
ZmSIP1-4myc (Zea mays) = experiment: as above

Molecule	binding (BD-ZmSGT1 (Zea mays))	binding [1]	binding (ZmSIP3-4myc (Zea mays))	binding (ZmSIP2-4myc (Zea mays))	binding (ZmSIP1-4myc (Zea mays))
AD-ZmSIP3 (Zea mays)	binds weakly				
AD-ZmSIP2 (from UniProt A0A1D6G9Q0)	binds	binds			
AD-ZmSIP1 (Zea mays)	binds				
B1			binds	binds	binds
